In PMC11784297:
No constants are given. Whether binding was seen depends on the method and setting. In cells and extracts the contact can be indirect. Some entries that bind do so weakly or less than the wild type. For part of these data: Sequences can lack the tags named with a protein.

Protein sequences, listed by entry. Tags and fused reporters are not part of them.
UniProt P42224: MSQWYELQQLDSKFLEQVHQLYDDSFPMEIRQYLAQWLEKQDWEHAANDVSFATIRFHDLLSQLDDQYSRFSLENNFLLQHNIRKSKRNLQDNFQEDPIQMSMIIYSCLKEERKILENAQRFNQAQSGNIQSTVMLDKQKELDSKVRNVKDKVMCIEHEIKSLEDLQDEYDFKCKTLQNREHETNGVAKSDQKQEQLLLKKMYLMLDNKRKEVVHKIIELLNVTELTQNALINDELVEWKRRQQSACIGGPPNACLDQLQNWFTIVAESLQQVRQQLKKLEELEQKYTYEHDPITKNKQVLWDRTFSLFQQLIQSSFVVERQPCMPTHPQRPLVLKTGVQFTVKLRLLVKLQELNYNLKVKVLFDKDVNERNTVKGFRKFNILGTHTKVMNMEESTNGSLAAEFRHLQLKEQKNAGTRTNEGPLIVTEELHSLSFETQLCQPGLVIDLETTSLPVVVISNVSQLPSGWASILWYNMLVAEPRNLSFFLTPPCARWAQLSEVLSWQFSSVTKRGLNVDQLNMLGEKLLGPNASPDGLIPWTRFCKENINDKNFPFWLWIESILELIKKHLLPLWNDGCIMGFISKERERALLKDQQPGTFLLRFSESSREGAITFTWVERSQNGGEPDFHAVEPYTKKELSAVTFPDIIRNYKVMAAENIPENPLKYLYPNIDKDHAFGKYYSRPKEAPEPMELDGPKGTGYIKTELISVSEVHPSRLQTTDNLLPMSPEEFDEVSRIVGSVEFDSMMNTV
UniProt P52630: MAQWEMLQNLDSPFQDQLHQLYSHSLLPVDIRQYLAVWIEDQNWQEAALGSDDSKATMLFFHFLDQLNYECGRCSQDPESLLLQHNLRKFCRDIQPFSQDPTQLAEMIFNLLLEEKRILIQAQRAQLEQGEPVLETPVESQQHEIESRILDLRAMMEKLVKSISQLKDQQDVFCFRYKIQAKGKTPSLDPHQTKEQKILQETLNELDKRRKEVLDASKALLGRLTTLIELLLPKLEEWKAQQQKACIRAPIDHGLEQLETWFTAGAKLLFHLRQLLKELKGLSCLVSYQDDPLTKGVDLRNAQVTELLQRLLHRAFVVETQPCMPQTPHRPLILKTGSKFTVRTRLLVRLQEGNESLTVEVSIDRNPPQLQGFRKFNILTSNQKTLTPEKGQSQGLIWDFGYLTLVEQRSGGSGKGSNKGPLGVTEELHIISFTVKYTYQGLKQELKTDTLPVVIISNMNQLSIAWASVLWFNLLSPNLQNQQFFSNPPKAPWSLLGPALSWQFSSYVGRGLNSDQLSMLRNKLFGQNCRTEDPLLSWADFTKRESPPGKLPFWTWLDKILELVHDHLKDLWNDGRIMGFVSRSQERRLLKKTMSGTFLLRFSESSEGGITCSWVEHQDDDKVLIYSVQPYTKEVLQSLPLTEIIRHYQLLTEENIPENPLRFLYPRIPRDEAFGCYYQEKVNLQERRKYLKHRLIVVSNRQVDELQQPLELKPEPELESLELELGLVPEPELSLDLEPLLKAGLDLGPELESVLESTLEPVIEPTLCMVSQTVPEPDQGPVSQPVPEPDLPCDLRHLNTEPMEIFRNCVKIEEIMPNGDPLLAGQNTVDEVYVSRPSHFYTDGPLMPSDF

Assays:
Test in all cases: co-IP
HA-tagged IRF9 = target: T1, HA-tagged IRF9 (UniProt Q00978)
T1 sequence: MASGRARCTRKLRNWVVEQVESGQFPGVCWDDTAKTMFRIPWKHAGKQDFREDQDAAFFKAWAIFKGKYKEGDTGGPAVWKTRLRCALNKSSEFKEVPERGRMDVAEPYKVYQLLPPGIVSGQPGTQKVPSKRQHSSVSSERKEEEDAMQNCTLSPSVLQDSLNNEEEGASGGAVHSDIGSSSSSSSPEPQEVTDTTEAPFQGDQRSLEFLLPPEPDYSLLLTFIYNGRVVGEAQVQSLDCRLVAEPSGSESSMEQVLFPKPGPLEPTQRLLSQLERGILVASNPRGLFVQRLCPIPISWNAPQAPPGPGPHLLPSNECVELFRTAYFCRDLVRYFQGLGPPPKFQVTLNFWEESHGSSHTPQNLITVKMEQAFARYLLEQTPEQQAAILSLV

HA-tagged STAT1 = HA-tagged STAT1 (UniProt P42224)
HA-tagged STAT2 = HA-tagged STAT2 (UniProt P52630)

Measured: binding

S2 domain (aa 688-1273) of the SARS-CoV-2 S protein (from UniProt P0DTC2 688-1273) (domain or fragment)
binds: all assays above
